# Reference: the supplement of paper PMC10398353
# Where “and” joins values, the source holds several entries; their conditions need not be identical. Equal entries are not always repeated. Structures can show the parent of a compound that is named as a salt. ± gives the standard deviation of the averaged measurements. The list shows a part of the results. Single values of this set are uncertain.
# Tested on: Salmonella enterica serovar Typhimurium ST313 D23580
# Test: normalized bacterial growth (OD600 20 h minus 0 h, interquartile-mean normalized) (fraction of plate interquartile mean); higher = more bacterial growth (less inhibition)
# Settings: LPM (pH 5.8, low phosphate, low Mg2+), concentration: 10 µM, temperature: 37 °C
row,SMILES,normalized bacterial growth
1,C[C@@H]1O[C@@H](O[C@H]2C[C@@H](O)[C@]3(CO)[C@H]4[C@H](O)C[C@]5(C)[C@@H](C6=CC(=O)OC6)CC[C@]5(O)[C@@H]4CC[C@]3(O)C2)[C@H](O)[C@H](O)[C@H]1O,0.506 and 1
2,C[C@@H]1O[C@@H](O[C@H]2C[C@@H](O)[C@]3(CO)[C@H]4[C@H](O)C[C@]5(C)[C@@H](C6=CC(=O)OC6)CC[C@]5(O)[C@@H]4CC[C@]3(O)C2)[C@H](O)[C@H](O)[C@H]1O [Strophantine octahydrate],1.1
3,Clc1cc(I)cc(Cl)c1NC1=NCCN1 [p-Iodoclonidine hydrochloride],0.693
4,"C[C@@H](N)Cc1cnc[nH]1 [""Histamine, R(-)-alpha-methyl-, dihydrochloride""]",1.16
5,COc1ccc2c3c([nH]c2c1)C(C)=NCC3 [Harmaline hydrochloride dihydrate],0.855
6,COc1ccc2c3c([nH]c2c1)C(C)=NCC3,1.22
7,CC1(C)C2C[C@@H](O)[C@]3(C)C(CC[C@@]4(C)[C@H](c5ccoc5)OC(=O)[C@H]5O[C@]543)[C@@]2(C)[C@@H](O)C[C@H]1O (some centres not stated),0.927
8,[N-]=[N+]=CC(=O)OC[C@H](N)C(=O)O,0.684
9,Cc1cc(O)c2c(=O)c3c(O)cc(O)c4c5c(O)cc(O)c6c(=O)c7c(O)cc(C)c8c1c2c(c34)c(c78)c65,1.41
10,CN(C)C(=O)Oc1cc(OC(=O)N(C)C)cc(C(O)CNC(C)(C)C)c1 (configuration not stated),0.871
11,"CN(C(=O)Cc1ccc(Cl)c(Cl)c1)C(CN1CCCC1)c1cccc(OCC(=O)O)c1 (configuration not stated) [""ICI 204,448 hydrochloride""]",0.981
12,C=C(C)[C@@]12O[C@@]3(c4ccccc4)O[C@@H]1[C@@H]1[C@@H]4O[C@]4(CO)[C@@H](O)[C@]4(O)C(=O)C(C)=C[C@H]4[C@@]1(O3)[C@H](C)[C@H]2OC(=O)/C=C/C=C/c1ccccc1,0.669
13,NCCc1ccc(O)cc1 [4-Hydroxyphenethylamine hydrochloride],1.32
14,NCCc1ccc(O)cc1,0.97
15,C[N+]1(C)[C@@H]2C[C@@H](OC(=O)[C@H](CO)c3ccccc3)C[C@H]1[C@@H]1O[C@@H]12 [(-)-Scopolamine methyl bromide],1.13
16,C[N+]1(C)[C@@H]2C[C@@H](OC(=O)[C@H](CO)c3ccccc3)C[C@H]1[C@@H]1O[C@@H]12,0.892
17,C[C@]12CC[C@H](O)C[C@@H]1CC[C@@H]1[C@@H]2CC[C@]2(C)C(=O)CC[C@@H]12 [Epiandrosterone],0.9
18,C[C@]12CC[C@H](O)C[C@@H]1CC[C@@H]1[C@@H]2CC[C@]2(C)C(=O)CC[C@@H]12,0.829
19,C[C@@H]1OC(=O)[C@H]2C[C@H]3CCCC[C@@H]3[C@@H](/C=C/[C@H]3CCC[C@H](C)N3C)[C@@H]12,1.2
20,CCn1cc(C(=O)O)c(=O)c2cc3c(cc21)OCO3 [Oxolinic acid],0.0836
21,CO[C@H]1C[C@H](O[C@H]2CC[C@]3(C=O)[C@H]4CC[C@]5(C)[C@@H](C6=CC(=O)OC6)CC[C@]5(O)[C@@H]4CC[C@]3(O)C2)O[C@H](C)[C@H]1O,0.989
22,"C[N+]1(C)CCN(c2ccccc2)CC1 [""1,1-Dimethyl-4-phenyl-piperazinium iodide""]",1.18
23,CCC1(c2ccc(N)cc2)CCC(=O)NC1=O (configuration not stated) [()-p-Aminoglutethimide],0.977

row,SMILES,normalized bacterial growth
1,C[C@H](Cc1ccc2c(c1)OC(C(=O)O)(C(=O)O)O2)NC[C@H](O)c1cccc(Cl)c1,1.15
2,CC1=C[C@]23C(=O)[C@@H](C=C(CO)[C@@H](O)[C@]2(O)[C@H]1O)[C@H]1[C@@H](C[C@H]3C)C1(C)C,1.16
3,CC[C@@]1([C@@H]2O[C@@H]([C@H]3O[C@@](O)(CO)[C@H](C)C[C@@H]3C)C[C@@H]2C)CC[C@H]([C@]2(C)CC[C@]3(C[C@H](O)[C@@H](C)[C@@H]([C@@H](C)[C@@H](OC)[C@H](C)C(=O)O)O3)O2)O1,0.841
4,CC[C@@]1([C@@H]2O[C@@H]([C@H]3O[C@@](O)(CO)[C@H](C)C[C@@H]3C)C[C@@H]2C)CC[C@H]([C@]2(C)CC[C@]3(C[C@H](O)[C@@H](C)[C@@H]([C@@H](C)[C@@H](OC)[C@H](C)C(=O)O)O3)O2)O1 [Monensin sodium salt],1.2
5,CCCN1CCC[C@H](c2cccc(O)c2)C1 [R(+)-3PPP hydrochloride],1.16
6,NC(=O)COc1c(F)cc(SCCNS(=O)(=O)c2ccccc2)cc1F,1.08
7,O=[N+]([O-])c1cc([As](=O)(O)O)ccc1O,0.66
8,c1ccc2c(c1)[I+]c1ccccc1-2 [Diphenyleneiodonium chloride],0.0305
9,"CC(=O)C1CCC2C3CCC4C[C@H](O)CCC4(C)C3C[C@H](O)C12C (stereo partly drawn) [""DIHYDROXY (3alpha,12alpha)PREGNAN-20-ONE""]",1.18
10,CCN1C[C@]2(COC(=O)c3ccccc3N3C(=O)C[C@H](C)C3=O)CC[C@H](OC)[C@@]34[C@@H]5C[C@H]6[C@H](OC)[C@@H]5[C@](O)(C[C@@H]6OC)[C@](O)([C@@H](OC)[C@H]23)[C@@H]14,0.937
11,CC(C)CCCC1(C)C=Cc2c(O)c3c(c(CCC(C)C)c2O1)OC12C(CC4CC1C(C)(C)OC2(CCC(C)C(=O)O)C4O)C3=O (configuration not stated),0.585
12,COc1ccc2c(c[n+](C)c3c4cc5c(cc4ccc23)OCO5)c1OC,0.873
13,COc1ccc2c(c[n+](C)c3c4cc5c(cc4ccc23)OCO5)c1OC [Chelerythrine chloride],0.249
14,CNc1ccc2oc(C[C@H]3O[C@@]4(CC[C@H]3C)O[C@H]([C@H](C)C(=O)c3ccc[nH]3)[C@H](C)C[C@H]4C)nc2c1C(=O)O,0.656
15,CNc1ccc2oc(C[C@H]3O[C@@]4(CC[C@H]3C)O[C@H]([C@H](C)C(=O)c3ccc[nH]3)[C@H](C)C[C@H]4C)nc2c1C(=O)O [Calcimycin],0.205
16,C[C@]12C=CC(=O)C=C1CC[C@@H]1[C@@H]2CC[C@]2(C)C(=O)CC[C@@H]12,0.962
17,CCN1C[C@]2(COC)[C@H](O)C[C@H](OC)[C@@]34[C@@H]5C[C@@]6(O)[C@H](OC(=O)c7ccccc7)[C@@H]5[C@@](OC(C)=O)([C@@H]([C@H](OC)[C@H]23)[C@@H]14)[C@@H](O)[C@@H]6OC,1.02 ± 0.08
18,CCN1C[C@]2(COC)[C@H](O)C[C@H](OC)[C@@]34[C@@H]5C[C@@]6(O)[C@H](OC(=O)c7ccccc7)[C@@H]5[C@@](OC(C)=O)([C@@H]([C@H](OC)[C@H]23)[C@@H]14)[C@@H](O)[C@@H]6OC [Aconitine],0.894
19,CC(=O)CC1CCCCN1 (configuration not stated),1.06
20,CCN1C[C@]2(OC(=O)c3ccccc3NC(C)=O)CC[C@H](OC)[C@@]34[C@@H]2C[C@@H]([C@@H]13)[C@@]1(O)C[C@H](OC)[C@H]2C[C@@H]4[C@]1(O)[C@H]2OC,1.29 ± 0.063
21,CC[C@@]1(O)C[C@H](O[C@H]2C[C@H](N(C)C)[C@H](O)[C@H](C)O2)c2c(cc3c(c2O)C(=O)c2c(O)ccc(O)c2C3=O)[C@H]1C(=O)OC,0.864
22,C[C@H]1O[C@@H](C[N+](C)(C)C)CS1,1.08
23,Cc1nccc2c1[nH]c1ccccc12 [Harmane hydrochloride],0.794

# Five entries drawn at random from those above, as already listed:
row,SMILES,normalized bacterial growth
23,Cc1nccc2c1[nH]c1ccccc12 [Harmane hydrochloride],0.794
3,Clc1cc(I)cc(Cl)c1NC1=NCCN1 [p-Iodoclonidine hydrochloride],0.693
17,CCN1C[C@]2(COC)[C@H](O)C[C@H](OC)[C@@]34[C@@H]5C[C@@]6(O)[C@H](OC(=O)c7ccccc7)[C@@H]5[C@@](OC(C)=O)([C@@H]([C@H](OC)[C@H]23)[C@@H]14)[C@@H](O)[C@@H]6OC,1.02 ± 0.08
7,O=[N+]([O-])c1cc([As](=O)(O)O)ccc1O,0.66
2,CC1=C[C@]23C(=O)[C@@H](C=C(CO)[C@@H](O)[C@]2(O)[C@H]1O)[C@H]1[C@@H](C[C@H]3C)C1(C)C,1.16

# Next entries:

row,SMILES,normalized bacterial growth
1,CCCN1CCc2cccc3c2[C@H]1Cc1ccc(O)c(O)c1-3 [R(-)-Propylnorapomorphine hydrochloride],0.702
2,CCCN(CCC)C1CCc2cccc(O)c2C1 (configuration not stated) [()-8-Hydroxy-DPAT hydrobromide],1.03
3,C=C1[C@H]2C[C@@]3([C@@H]1O)[C@@H](CC2=O)[C@]12[C@@H]4C[C@H]3[C@H]1N(CC)C[C@]4(C)CC[C@@H]2O,1.12
4,c1cncc(C2=NCCC2)c1,1.19
5,C=CCc1cc(OC)c2c(c1)OCO2,1.15
6,COc1ccc(C(=O)OC2CC3CCC(C2)N3C)cc1OC (configuration not stated),0.944
7,C[N+]1([O-])[C@@H]2C[C@@H](OC(=O)[C@H](CO)c3ccccc3)C[C@H]1[C@@H]1O[C@@H]12 (some centres not stated) [Scopolamin-N-oxide hydrobromide],1.03
8,O[C@@H]1CCCC[C@H]1N1CCC(c2ccccc2)CC1 [L(-)-vesamicol hydrochloride],0.838
9,O=C1CCCN1CC#CCN1CCCC1,1.21
10,O=C1CCCN1CC#CCN1CCCC1 [Oxotremorine sesquifumarate salt],1.06
11,COC1=CC(=O)O[C@@H](CCc2ccc3c(c2)OCO3)C1,0.883
12,CO[C@@H]1C[C@@H](C[C@H]2CC[C@H](C)[C@H]([C@@H](C)C(=O)O)O2)O[C@]2(O[C@](C)([C@H]3CC[C@@](C)([C@@H]4O[C@@H]([C@H]5O[C@@](O)(CO)[C@H](C)C[C@@H]5C)C[C@@H]4C)O3)C[C@H]2C)[C@@H]1C,1.18
13,Oc1cc(Cl)ccc1Oc1ccc(Cl)cc1Cl,0.072
14,CC1=C2[C@H]3OC(=O)[C@@H](C)[C@@H]3CC[C@@]2(C)C=CC1=O,1.18
15,OCC(O)Cc1ccc2c(c1)OCO2 (configuration not stated),1.03
16,C/C=C1\C[C@@H](C)[C@](O)(CO)C(=O)OCC2=CCN3CC[C@@H](OC1=O)[C@@H]23,1.08
17,c1ccc(C2(c3ccccc3)CC2C2=NCCN2)cc1 (configuration not stated) [Cibenzoline succinate],0.975
18,CCCN(CCC)C1CCc2ccc(O)cc2C1 (stereo not drawn) [R-(+)-7-Hydroxy-DPAT hydrobromide],0.863
19,CCCN(CCC)C1CCc2ccc(O)cc2C1 (configuration not stated) [()-7-Hydroxy-DPAT hydrobromide],0.994
20,CCC(N)C(O)c1ccc(O)c(O)c1 (configuration not stated),1.04
21,CN(N=O)c1cc(O)ccc1O [Dephostatin],0.763
